Measured values as given in the supplement of paper PMC10735217.
The other results are listed elsewhere or left out. This data set is noisy: repeats of one test often differ as much as different tests do.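 The human kidney-derived cells carry a stably integrated construct of eight TEAD-binding elements driving luciferase, read by luminescence in a drug-repurposing library screen. A compound counts as a hit when its signal is more than five robust Z scores above the plate mean.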

System: HEK293A TEAD-LUC reporter
Test: TEAD-luciferase reporter activity (YAP activation), robust Z score vs plate; higher = stronger YAP/TEAD activation
Settings: 24 h

Measured: TEAD-luciferase reporter activity

CSCC[C@H](NC(=O)[C@H](Cc1c[nH]c2ccccc12)NC(=O)CNC(=O)C(NC(=O)[C@H](Cc1ccc(OS(=O)(=O)O)cc1)NC(=O)[C@H](CC(=O)O)NC(=O)[C@H](CCC(N)=O)NC(=O)[C@@H]1CCC(=O)N1)[C@@H](C)O)C(=O)N[C@@H](CC(=O)O)C(=O)N[C@@H](Cc1ccccc1)C(N)=O (some centres not stated) [ceruletide, Fukuoka]
inactive: compound concentration: 200 nM -0.841 | compound concentration: 2 uM 0.182 | compound concentration: 10 uM 3.38

CC(C)C[C@H](C(=O)NCC(N)=O)N(C)C(=O)[C@@H]1CCCN1
inactive: compound concentration: 200 nM -1.35 | compound concentration: 2 uM -0.804 | compound concentration: 10 uM -0.628

COc1ccc([C@@H](O)c2cc(-c3ncnc4cc(N5CCOCC5)ccc34)c(F)cc2Cl)nn1
inactive: compound concentration: 200 nM -0.0257 | compound concentration: 2 uM -1.77 | compound concentration: 10 uM 1.8

C[Se]CC[C@H](N)C(=O)O [L-SelenoMethionine]
inactive: compound concentration: 200 nM -1.27 | compound concentration: 2 uM -0.746 | compound concentration: 10 uM -0.66

CN1C(=O)N(c2cc(Cl)cc(Cl)c2)C(=O)[C@]12CN(Cc1cc(C(=O)O)cs1)C[C@H]2c1ccc(C#N)cc1
inactive: compound concentration: 200 nM -1.49 | compound concentration: 2 uM -0.77 | compound concentration: 10 uM 0.231

CN1NC(C(N)=O)=CCC1=O
inactive: compound concentration: 200 nM 0.789 | compound concentration: 2 uM -0.723 | compound concentration: 10 uM 0.217

CCOC(=O)[C@@](C)(N)Cc1ccc(O)c(O)c1
inactive: compound concentration: 200 nM 1.52 | compound concentration: 2 uM -0.502 | compound concentration: 10 uM -1.23

Part of the list above in order of number of heavy atoms, smallest number first:
CCOC(=O)[C@@](C)(N)Cc1ccc(O)c(O)c1
inactive: compound concentration: 200 nM 1.52 | compound concentration: 2 uM -0.502 | compound concentration: 10 uM -1.23

CC(C)C[C@H](C(=O)NCC(N)=O)N(C)C(=O)[C@@H]1CCCN1
inactive: compound concentration: 200 nM -1.35 | compound concentration: 2 uM -0.804 | compound concentration: 10 uM -0.628

COc1ccc([C@@H](O)c2cc(-c3ncnc4cc(N5CCOCC5)ccc34)c(F)cc2Cl)nn1
inactive: compound concentration: 200 nM -0.0257 | compound concentration: 2 uM -1.77 | compound concentration: 10 uM 1.8

Later entries.

N#Cc1ccc(NC(=O)Nc2ccccc2Br)c2[nH]nnc12
inactive: compound concentration: 200 nM -2.6 | compound concentration: 2 uM -0.965 | compound concentration: 10 uM 0.381

N=C(N)c1ccc(OCCCCCOc2ccc(C(=N)N)cc2)cc1 [pentamidine isethionate, Oncozyme]
inactive: compound concentration: 200 nM -0.236 | compound concentration: 2 uM 1.37 | compound concentration: 10 uM 2.56

CN(C)CC(Oc1ccccc1)Oc1ccccc1 [medifoxamine]
inactive: compound concentration: 200 nM -0.82 | compound concentration: 2 uM -0.851 | compound concentration: 10 uM -0.749

C[C@@H](CO)Oc1cc(Oc2ccc(S(C)(=O)=O)cc2)cc(C(=O)Nc2ccn(C)n2)c1
inactive: compound concentration: 200 nM 1.25 | compound concentration: 2 uM 0.723 | compound concentration: 10 uM -0.575

CC(C)CC1Nc2cc(Cl)c(S(N)(=O)=O)cc2S(=O)(=O)N1 (configuration not stated)
inactive: compound concentration: 200 nM 0.0965 | compound concentration: 2 uM 1.46 | compound concentration: 10 uM 0.374

CC(C)Oc1ccc(-c2ccccc2C(=O)Nc2ccc3cc(C(=O)N[C@H](C(=O)N(C)Cc4ccc(F)cc4)c4ccccc4)ccc3n2)cc1
inactive: compound concentration: 200 nM -1.42 | compound concentration: 2 uM 1.32 | compound concentration: 10 uM 0.0515

CC(=O)[C@@]1(O)CCC2C3C=CC4=CC(=O)CC[C@]4(C)C3CC[C@@]21C (some centres not stated)
inactive: compound concentration: 200 nM -1.21 | compound concentration: 2 uM -0.536 | compound concentration: 10 uM 4.7
